Publication PMC9599728

Chains of the proteins cited; added tags and fusions are not shown. Residues count along the entry.
UniProt P02771, 19-609: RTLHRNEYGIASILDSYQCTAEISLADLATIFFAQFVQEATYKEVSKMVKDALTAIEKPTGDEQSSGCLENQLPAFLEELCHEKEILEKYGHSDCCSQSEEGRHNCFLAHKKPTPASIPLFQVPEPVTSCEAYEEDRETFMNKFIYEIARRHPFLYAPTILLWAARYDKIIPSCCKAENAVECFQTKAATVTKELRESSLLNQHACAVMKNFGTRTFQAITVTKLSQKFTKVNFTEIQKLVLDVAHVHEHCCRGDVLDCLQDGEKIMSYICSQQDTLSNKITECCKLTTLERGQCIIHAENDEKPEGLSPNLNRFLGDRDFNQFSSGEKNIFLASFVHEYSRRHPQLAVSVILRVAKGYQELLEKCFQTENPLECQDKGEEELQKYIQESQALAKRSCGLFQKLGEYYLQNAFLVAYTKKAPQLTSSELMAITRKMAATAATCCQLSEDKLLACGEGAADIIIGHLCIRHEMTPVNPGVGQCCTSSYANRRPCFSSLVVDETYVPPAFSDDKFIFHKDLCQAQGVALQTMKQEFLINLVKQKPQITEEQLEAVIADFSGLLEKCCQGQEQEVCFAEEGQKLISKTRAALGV
UniProt P07288, 25-261: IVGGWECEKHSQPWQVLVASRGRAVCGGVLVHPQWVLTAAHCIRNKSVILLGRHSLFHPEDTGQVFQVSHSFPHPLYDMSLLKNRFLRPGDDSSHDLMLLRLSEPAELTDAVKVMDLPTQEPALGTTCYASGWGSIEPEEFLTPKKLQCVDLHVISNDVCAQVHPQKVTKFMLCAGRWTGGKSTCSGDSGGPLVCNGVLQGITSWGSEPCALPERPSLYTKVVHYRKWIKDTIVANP

Legend:
Test in all cases: sandwich FLISA (antibody capture, aptamer nanoparticle probe)
alpha-fetoprotein (AFP) = alpha-fetoprotein (AFP) (UniProt P02771); conditions: 25 ng/mL, signal equal to blank, plate carries anti-CEA antibody, so aptamer not tested alone; 5'-NH2; coupled by glutaraldehyde to CP/ZIF-8/PDA nanoparticles; CEA capture 37 C 1 h, aptamer probe room temperature 1 h; washes in PBS 10 mM pH 7.4; probe blocked with 1% BSA; read-out with 4 mM OPD in 10 mM HAc-NaAc pH 5.5, 3 h; commercial protein; single-stranded DNA
glycoantigen 125 (CA125) = glycoantigen 125 (CA125) (UniProt Q8WXI7); conditions: 25 IU/mL, signal equal to blank, plate carries anti-CEA antibody, so aptamer not tested alone; 5'-NH2; coupled by glutaraldehyde to CP/ZIF-8/PDA nanoparticles; CEA capture 37 C 1 h, aptamer probe room temperature 1 h; washes in PBS 10 mM pH 7.4; probe blocked with 1% BSA; read-out with 4 mM OPD in 10 mM HAc-NaAc pH 5.5, 3 h; commercial protein; single-stranded DNA
prostate antigen (PSA) = prostate antigen (PSA) (UniProt P07288); conditions: 25 ng/mL, signal equal to blank, plate carries anti-CEA antibody, so aptamer not tested alone; 5'-NH2; coupled by glutaraldehyde to CP/ZIF-8/PDA nanoparticles; CEA capture 37 C 1 h, aptamer probe room temperature 1 h; washes in PBS 10 mM pH 7.4; probe blocked with 1% BSA; read-out with 4 mM OPD in 10 mM HAc-NaAc pH 5.5, 3 h; commercial protein; single-stranded DNA

Measured: binding result

TTTTATACCAGCTTATTCAATT [CEA aptamer]
no binding: all assays above

Negatives hold for the conditions tested. At least one verdict rests on a figure or table, not on a statement of the authors. For part of these data: The exact form of at least one protein or probe is not confirmed.
